# From article PMC5620733
# Tested on: thrombin
# Assay: fluorescence decrease on chitosan-coated Au nanostructure (aptamer release)
# Settings: irrelevant DNA sequences of similar size gave negligible change (data not shown); 20 mM Tris-HCl pH 7.4, 20 mM MgCl2; chitosan-coated (1000 Da) Au nanostructure blocked with 1% BSA; 15 min; temperature not stated; commercial protein; single-stranded DNA
sequence,measurement,value
TAGTGAATGGATCGGACAGC [Random DNA 20mer],binding result,no binding

# A negative result means that nothing was seen under these conditions. At least one verdict was read from the data and is not stated in words by the source.
